Patent publication US11168052B2, “Carbamate derivative compounds, processes for preparing them and their uses” (BIO-PHARM SOLUTIONS CO., LTD., priority 2016, dated 2021)

Experiments:
[1] = system: PTZ (Pentylenetetrazol)-induced clonic seizure in rats; experiment: Anti-epilepsy activity, scPTZ test in rats; type: in vivo, SD rats
Source text: (§1) In this experiment, each test compound sample was formulated as described in Biological Experimental Example 1, and administered intraperitoneally to the test animals (mice; ICR or Rat; SD); Experimental animals, male ICR mice and male SD rats, were purchased from OrientBio or Nara biotech, Korea, and housed 4-5 mice per a cage for 4-5 days. The range of mice body weight was used between 19 and 26 grams and range of rats body weight was used between 100 and 130 grams. After Peak time (0.5, 1, 2 and 4 hr) from the administration, PTZ (Pentylenetetrazol) was administered subcutaneously in the concentration capable of inducing 97% intermittent convulsions (mice: 100-110 mg/kg?bw, 10 μl/g, or rats: 90-110 mg/kg?bw, 2 μl/g). If clonic seizure was not observed for at least 30 minutes in the PTZ administered animal, it can be considered that the test compound has anti-epilepsy activity. The median effective dose (ED50) is determined using 6 animals per a concentration (total three different concentrations), and calculated by Litchfield and Wicoxon log-probit method which is a dose-response relationship.

[2] = system: Lithium-pilocarpine induced seizure in rats; experiment: Lithium-pilocarpine induced epilepsy test (LI-PILO), prevention test; type: in vivo, Sprague-Dawley rats; conditions: i.p.
Procedure, shortened: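 Male Sprague-Dawley rats (175 g) received lithium chloride 127 mg/kg i.p., then pilocarpine 30-43 mg/kg i.p. 18-20 h later, with methyl-scopolamine 2 mg/kg given 30 min before pilocarpine. Test drugs in 20% Tween80 were given i.p. 0.5-4 h beforehand (n=6). Protection meant no Racine grade 3-5 seizure over 90 min, and ED50 was determined at peak time.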

[3] = system: MES (electroshock) seizure in mice; experiment: Anti-epilepsy activity, MES test in mouse; type: in vivo, ICR mice
Procedure, shortened: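 Male ICR mice (19–25 g) and male SD rats (100–130 g) dosed orally with compound in 20% Tween 80/saline, then shocked via corneal electrodes at peak time (mice 50 mA, rats 150 mA; 60 Hz, 0.2 sec). Three doses used; ED50 for seizure protection by Litchfield–Wilcoxon log-probit.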

ICR mice on hot plate = experiment: Hot-plate test; type: in vivo; conditions: orally
Protocol: To examine the pain relief effect of the carbamate compounds, a hot-plate test was conducted in referring to Current Protocols in Neuroscience; Behavioral Neuroscience Unit 8.9.
ICR mice (male, 25-28 g; Orient Bio, Korea) were habituated before test (in test room) for 1 hour. Animals were fasted 2 hr before administration of compounds. Compounds were orally administered at the three dose, 10 ul/g, by bodyweight (n=4-6/group). All compounds were dissolved in a vehicle of 30% (v/v) PEG 400 or 20% (v/v) Tween 80. The control group was treated the vehicle without compounds.
0.25-2.0 hr after the administration of compounds, the mice were put on a hot plate pre-heated to 55±1 (Hu, X. et al, 2008), and then, the withdrawal latency time was measured (cut-off time: 30 sec) until the point when each mouse was taking a paw off from the plate, shaking, licking a paw or hind leg, or jumping from the plate.

[4] = system: PTZ (Pentylenetetrazol)-induced clonic seizure in mice; experiment: Anti-epilepsy activity, scPTZ test in mouse; type: in vivo, ICR mice
Source text: as §1

With `NC(=O)O[C@@H]1c2c(Cl)cccc2CC[C@@H]1O` [Example 19, (1R, 2S)-8-chloro-2-hydroxy-1,2,3,4-tetrahydronaphthalen-1-yl carbamate] the “scPTZ test (ip) peak time” value [1] was 4 h, the “Lithium pilocarpine model (pre) peak time” value [2] was 0.5 h and the “MES test (po) Peak time” value [3] was 1 h.
With `NC(=O)O[C@@H]1CCc2cccc(Cl)c2[C@@H]1O` [Example 1, (1S, 2R)-8-chloro-1-hydroxy-1,2,3,4-tetrahydronaphthalen-2-yl carbamate] the “scPTZ test (ip) peak time” value [1] was 0.5 h, the “Lithium pilocarpine model (pre) peak time” value [2] was 1 h and the “Hot-plate test Peak Time” value (ICR mice on hot plate) was 1 h. For the same compound, the “MES test (po) Peak time” value [3] was 0.5 h and the “PTZ test (ip) Peak time” value [4] was 0.5 h.
